Protein sequences can lack the tags named with them. The exact form of at least one protein or probe is not confirmed. For some assays here: Negatives hold for the conditions tested. For some assays here: The comparison behind a weaker result is the experiment's own reference, which may not be listed here.

The text below walks through data of PMC8546615, “Polyketide Starter and Extender Units Serve as Regulatory Ligands to Coordinate the Biosynthesis of Antibiotics in Actinomycetes” (mBio, 2021).

The target of data set [1] is T1, AcrT (Saccharopolyspora erythraea A226) (UniProt A4FGS6).
T1 sequence (looked up, limits assumed): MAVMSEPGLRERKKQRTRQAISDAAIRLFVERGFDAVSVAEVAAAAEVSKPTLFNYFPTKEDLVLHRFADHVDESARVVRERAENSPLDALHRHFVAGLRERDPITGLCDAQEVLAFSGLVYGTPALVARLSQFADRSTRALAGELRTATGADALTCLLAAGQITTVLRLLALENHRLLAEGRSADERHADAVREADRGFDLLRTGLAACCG
The experiment in a line: BLI. Conditions: BLI: 1 mM Tris-HCl pH 8.0, 5 mM MgCl2, 60 mM KCl, 10 mM DTT, 50 mM EDTA, 10% glycerol, 25 C, recombinant protein, protein details: N-terminal His (pET28a), label: biotin.

In data set [2] the target is T1, AcrT (Saccharopolyspora erythraea A226). The experiment in a line: EMSA. Particulars: EMSA: binding buffer (composition not given), 30 C 20 min, 6% native PAGE in TAE, recombinant protein, protein details: N-terminal His (pET28a), probe letters rebuilt from the primers and the genome.
Data set [3] deals with T2, AcrTSa (Streptomyces avermitilis NRRL8165).
T2 sequence (looked up): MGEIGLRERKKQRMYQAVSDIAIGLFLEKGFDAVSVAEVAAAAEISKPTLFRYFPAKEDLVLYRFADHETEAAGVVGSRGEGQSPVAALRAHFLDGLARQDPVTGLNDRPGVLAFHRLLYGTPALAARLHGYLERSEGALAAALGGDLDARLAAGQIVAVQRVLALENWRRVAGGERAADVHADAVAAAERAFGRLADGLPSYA
Put plainly: EMSA. Particulars: EMSA: binding buffer (composition not given), 30 C 20 min, 6% native PAGE in TAE, recombinant protein, residues 1-204, protein details: His (pET28a), probe letters rebuilt from the primers and the genome.

For the sequence “AGGCGATGTCAACCTCTTGATCCTTCCTATATTGTTCGCCCATTGCGTGG (double strand) [50-bp site A probe]”, the Kd in data set [1] (400 uM methylmalonyl-CoA) turned out to be 0.0508 µM; in data set [1] (400 uM propionyl-CoA), 0.0811 µM; in data set [1] (800 uM methylmalonyl-CoA) it was 0.155 µM; in data set [1] (800 uM propionyl-CoA), 0.194 µM.
On to “CGCGTAGGACTCCGAGGCCGGGTCGACGGCCGTGGTGAGGACGGGCGCATCCATGCGTTGTGCACACCTTCCGCGGTCAGCGCGTTAGTCATCGTTAACCAACGGGATCGATGTTAACGACGACTAACCCCTTCGTCTAGTATCGACACGATGGAGGCAAAGCCGTCCCGGCGCGAGCAGATCCTGGAAG (double strand) [P7038-7039]”, for which the binding result in data set [2] (methylmalonyl-CoA) and in data set [2] (propionyl-CoA) was “binds more weakly” throughout.
With “GACGTCCTCCTCCTGGTGCGGTCGGTTTGGACGTGTCCTCACCTACACCGAGGCGGCGCGGGCGCGCGTGGATACGTCACCGGCGCCGTCGATCCGGATCCGCCTCGGCATGTATCCCGCGGCGGCGCAGCCCGCTCTGTACGGGTGGATCTCGCGGGCGAGCCGACTCCGCGTCGAGCCACGCGCGAGGTCACCGCGCGAGACGGGTCCCGCTCGTCCGCGACGACCTGTGAGGAGGGACGTGGTGAGT (double strand) [P0018-0028]”, the binding result in data set [2] (methylmalonyl-CoA) and in data set [2] (propionyl-CoA) was “binds more weakly” in each case.
In the case of “GCTGCTTCTTTAGCACACCGCTACCAGCGCCAAATCGATGTGACCAGGCGTTTTACCTCGACATGATTGTTTGTTTACAACCTTTTTTCAGGCGTTTGCGCTCGCAGGCGTTGCTTTGGCGAGCGCGCTGTGATCTTCGTCATCAGTTCGGTGAGGGCACTCGATCCGATTGCGTGAGCGCCACCCCGCGGTGCACTGTTGCACGACGACCACGGCCGCTTCCGCGTTCCGAACCCCCGCCACGTCGAAACCGCGCGCGCCCGCGCGCGGCACCACCGAGCGTGAGAGACGAGGCATC (double strand) [P0632-0633]”, the binding result in data set [2] (methylmalonyl-CoA) and in data set [2] (propionyl-CoA) was “binds more weakly” in each case.
Consider “CTGAGCTGTGTCCTCACCGCTAGGCAATGCTCGGCGGCCGTGCGGACATGATGAGAGCTGCAATGCAGCGTCGAAGAATGAAAGGAGCGCGAGAAATCCGCTGACGGCCGGGCATCAATGTCTTGAACGTCTTCAACTCTTCAAAGCTAATGACGGCGCGGCGGCGGCGAATACCCCTATCCACCCCTGGGCTGTGCCGTTCCCAAGGGTGTTCATTTCTTAGGGGATCGGGGTGTCTGCATAGCTCGGACAAGTGGCAGAAAAAGGTCTACGTTTCCTGGAGTAGATCGCCACGACAGCTGGGCCGCCCGGCCCGGATTGCGGAGGTTCCCGA (double strand) [PaveA1]”, for which the binding result was “binds” in data set [3]; “binds more weakly” in data set [3] (M-CoA); “binds” in data set [3] (acetyl-CoA (no effect)); “binds more weakly” in data set [3] (isobutyryl-CoA); “binds more weakly” in data set [3] (methylbutyryl-CoA); “binds more weakly” in data set [3] (methylmalonyl-CoA).
For “GGCAACACGACTGAACACCGACTCGAGCCTCCTGATTCACTGCAACCTGTCCGAGGGCGGTCTAGCCCCACGATGGGACACGATCTCGGTTACCGGCCAGTATGGAAATGTAGAACACGCCCCATGATCCGAACCAAAAGTCGTAAGGAATCGCCAAAGTGCAGGTTCCGGCGGGGGCGTTGCGGCCGGGAACCCGCTCCGGGAGGCTCCGCGGCGCCGGTCCGGCCCACGGCGAGTGGCCGGAGCGGCACTCTCGGTTCGGGCGGTCCGGCTACGTGATTCGTGCCATGTACCTGGCAGGTTGCTGCCACGCGCAGT (double strand) [P4237]”, the binding result in data set [2] is “no binding”.
